This experiment deals with T1, human Adgrd1 with a C-terminal Flag epitope (human) (UniProt Q6QNK2).
T1 sequence: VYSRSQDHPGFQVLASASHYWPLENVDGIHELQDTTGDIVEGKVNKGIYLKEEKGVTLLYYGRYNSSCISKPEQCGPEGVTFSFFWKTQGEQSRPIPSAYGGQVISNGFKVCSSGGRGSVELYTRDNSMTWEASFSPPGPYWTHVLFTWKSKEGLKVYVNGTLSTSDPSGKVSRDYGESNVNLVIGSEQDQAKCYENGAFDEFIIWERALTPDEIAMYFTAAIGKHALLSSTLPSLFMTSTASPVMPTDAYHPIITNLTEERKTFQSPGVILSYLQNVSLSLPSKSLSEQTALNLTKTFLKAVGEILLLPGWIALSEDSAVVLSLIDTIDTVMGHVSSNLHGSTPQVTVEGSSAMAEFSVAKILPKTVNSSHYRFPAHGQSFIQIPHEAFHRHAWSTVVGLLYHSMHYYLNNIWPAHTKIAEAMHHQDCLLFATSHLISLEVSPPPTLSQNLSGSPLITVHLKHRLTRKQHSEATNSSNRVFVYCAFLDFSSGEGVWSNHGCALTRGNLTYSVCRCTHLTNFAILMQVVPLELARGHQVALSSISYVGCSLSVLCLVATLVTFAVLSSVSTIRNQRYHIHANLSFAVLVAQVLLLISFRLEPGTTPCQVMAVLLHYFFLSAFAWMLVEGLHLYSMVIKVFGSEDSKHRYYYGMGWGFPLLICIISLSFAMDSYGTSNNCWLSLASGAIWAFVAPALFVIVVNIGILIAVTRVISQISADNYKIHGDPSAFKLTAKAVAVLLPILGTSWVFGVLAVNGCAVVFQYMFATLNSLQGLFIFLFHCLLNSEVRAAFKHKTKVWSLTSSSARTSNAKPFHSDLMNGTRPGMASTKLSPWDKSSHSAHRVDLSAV
The experiment can be described thus: co-IP.

No constants are given. Whether binding was seen depends on the method and setting. In cells and extracts the contact can be indirect. Some entries that bind do so weakly or less than the wild type. Tags and fused reporters may be left off the sequences shown.

Consider “recombinant flexible tail of the human prion protein, residues 23-110 (from UniProt P04156 23-110) (domain or fragment)”, for which the binding entry is listed as “binds”.

(Values after publication doi:10.1101/2023.04.29.538801.)
